Measurements reported in patent US12616672B2, “Methods for assessing risk of cardiovascular disease and methods and compounds for use in treating or preventing cardiovascular disease” (Queen Mary University of London, priority 2017, dated 2026).
At least one structure is not confirmed: it was looked up by name or label, or the drawing left a doubt.

Experiments:
[1] = system: peripheral blood from healthy volunteers; assay: Flow chamber: healthy volunteer blood incubated with ACh then perfused, RvDn-3 DPA by LM profiling; assay type: cell-based, human; details: ACh 10 nM, perfused at 0.1 Pa for 20 min at 37° C.
[2] = system: peripheral blood from healthy volunteers; assay: Human whole blood incubations (ACh, norepinephrine, cortisol), then lipid mediator profiling of plasma; assay type: cell-based; details: ACh 0.1 μM, 45 min, 37° C.
Method: Plasma was obtained from peripheral blood of healthy volunteers and patients following centrifugation at 1500×g for 10 min at room temperature. Descending aortas were weighed, placed in ice-cold methanol and homogenized using a glass dounce.
All samples for LC-MS-MS-based profiling were extracted using solid-phase extraction columns as described in Dalli et al. 2013 and Rathod et al. 2017, the contents of which are incorporated herein by reference.
Prior to sample extraction, deuterated internal standards, representing each region in the chromatographic analysis (500 pg each) were added to facilitate quantification in 4V of cold methanol.
Samples were kept at −20° C. for a minimum of 45 min to allow protein precipitation.
Supernatants were subjected to solid phase extraction, methyl formate fraction collected, brought to dryness and suspended in phase (methanol/water, 1:1, vol/vol) for injection on a Shimadzu LC-20AD HPLC and a Shimadzu SIL-20AC autoinjector, paired with a triple quadrupole mass spectrometer with or without a linear ion trap. […]

Q: How did the “RvDn-3 DPA concentrations in whole blood, flow conditions” value [1] turn out when `CC(=O)OCC[N+](C)(C)C` [ACh, acetylcholine] was run?
A: increased

Q: What about the “RvDn-3 DPA concentrations in whole blood, static conditions” value [2] of the same compound?
A: increased
